Measurements reported in PubChem BioAssay AID504834 (National Center for Advancing Translational Sciences (NCATS), 2011).
About 22,000 (6.9%) of roughly 320,000 compounds were called active. The shares of active, inactive and inconclusive entries below differ from those in the screen. The call rests on the fitted dose curve; in most records, active means well fitted inhibition curve with a large enough effect; inconclusive means small, poorly fitted or top-dose-only effect, or another doubt; inactive means no such curve, though single readings can be large or run the other way. Where the call is inconclusive, the potency comes from a doubtful curve fit.

Test: Primary qHTS for delayed death inhibitors of the malarial parasite plastid, 96 hour incubation
Settings: P. falciparum luciferase reporter growth; series mostly up to 28.7 µM; activity change, negative = inhibition: at the top concentration
Summary of the method: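 Infected RBCs, 2% Hct / 0.05% parasitemia final; luciferase-reporter P. falciparum; cpd 96 h, 37 C, 5% CO2; luciferase detection reagent; luminescence.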
On the % scale 0 is the no-effect control and ±100 the full control effect; potency means the concentration at half of the fitted maximal effect.

| SMILES | Potency | activity change, negative = inhibition |
| --- | --- | --- |
| COCCN(C(=O)Cc1cccs1)C(C(=O)NCc1ccc(OC)cc1)c1ccc(C)cc1 (configuration not stated) | active: 5.86 µM |  |
| CCc1ccc(CN(C)C(=O)c2cc(COc3c(F)cccc3F)on2)cc1 | inconclusive: 11.7 µM [inhibitor, single point] |  |
| Cc1ccc2nc(N3CCN(C(=O)c4ccco4)CC3)c3nncn3c2c1 | inconclusive: 13.1 µM [inhibitor, single point] |  |
| O=C(CCc1c[nH]c2ccccc12)NCC1COc2ccccc2O1 (configuration not stated) | inconclusive: 13.1 µM [inhibitor, single point] |  |
| COc1ccc(CCNC(=O)CSc2nnc(CNc3ccc(Cl)cc3)o2)cc1OC | inconclusive: 0.0465 µM [inhibitor, full curve, poor fit] |  |
| CC(=O)c1sc(NC(=O)C(C)Oc2ccc3c(C)cc(=O)oc3c2)nc1C (configuration not stated) |  | inactive: 6.84% |
| O=C1C2C3C=CC(C3)C2C(=O)N1c1cccc2cccnc12 (configuration not stated) | active: 5.86 µM |  |
| COc1cc(N2C(=O)CC3(CCCC3)CC2=O)cc(OC)c1OC |  | inactive: 11.1% |
| CC(C)c1ccccc1NC(=S)NCc1ccncc1 |  | inactive: 33.7% |
| CCOC(=O)c1ccccc1NC(=O)c1cccs1 | inconclusive: 0.0131 µM [inhibitor, full curve, poor fit] |  |
| Cc1ccc(CSc2nnc(-c3cccc(S(=O)(=O)N4CCOCC4)c3)n2C2CCCC2)cc1 | active: 8.28 µM |  |
| O=C1[C@H]2[C@@H](c3ccc(Cl)cc3)N3C(=O)N(c4cccc(Cl)c4)C(=O)[C@@]3(Cc3ccc(Cl)cc3)[C@H]2C(=O)N1C1CCCCC1 | inconclusive: 2.94 µM [inhibitor, single point] |  |
| O=C(C1CCN(C2CCN(Cc3ccc4c(c3)CCO4)CC2)CC1)N1CCOCC1 | active: 11.7 µM |  |
| CSc1ccc(-c2nc(CSCC(=O)NCCCN3CCCC3=O)c(C)o2)cc1 | inconclusive: 18.5 µM [inhibitor, single point] |  |
| O=C(Nc1ccc(F)cc1)c1cccc(NC(=O)C2C3CC4OC(=O)C2C4C3)c1 (configuration not stated) | inconclusive: 18.5 µM [inhibitor, single point] |  |
| C[C@@H](NC(=O)[C@@H]1Cc2ccccc2CN1)C(=O)Nc1ccc2c(c1)OCO2 | inconclusive: 18.5 µM [inhibitor, single point] |  |
| CC(C)NC(=O)CN1CCN(c2ncccn2)CC1 |  | inactive: -14.4% |
| Cc1ccc(Cl)cc1N1CCN(C(=O)COc2ccc3c(c2)CCC3)CC1 | inconclusive: 18.5 µM [inhibitor, single point] |  |
| O=C1CC(N2CCN(Cc3ccccc3)CC2)C(=O)N1 (configuration not stated) | inconclusive: 5.86 µM [inhibitor, partial curve, poor fit] |  |
| Cc1ccc(N2CC(O)(c3cccs3)[N+]3=C2CCCC3)cc1 (configuration not stated) | active: 5.22 µM |  |
| COCCn1c(SCC(=O)Nc2nnc(C)s2)nnc1-c1ccncc1 | inconclusive: 14.7 µM [inhibitor, single point] |  |
| COc1ccc(C(=O)NNC(=S)NC(=O)c2ccccc2)cc1 | active: 6.57 µM |  |
| CCCn1c(SC(C)C(=O)NCC2CCCO2)nc2sc3c(c2c1=O)CCC3 (configuration not stated) | inconclusive: 9.28 µM [inhibitor, partial curve] |  |
| Cc1ccc(NC(=O)c2cc(-c3cccs3)on2)cc1C | inconclusive: 18.5 µM [inhibitor, single point] |  |

| SMILES | Potency | activity change, negative = inhibition |
| --- | --- | --- |
| CNC(=S)Nc1ccc([N+](=O)[O-])c(C)c1 |  | inactive: 73.3% [at 5.75 µM] |
| CN1C(=O)c2ccccc2Sc2ccc(NC(=O)N3CCCC3)cc21 | inconclusive: 1.17 µM [inhibitor, partial curve, poor fit] |  |
| CC(=O)c1cccc(NC(=O)COC(=O)Cc2ccc(Cl)cc2)c1 |  | inactive: 14.3% |
| CCN(CC)C1CCN(C(=O)c2cc(COc3ccc(F)cc3Cl)on2)C1 (configuration not stated) |  | inactive: -28% |
| CC(C)c1ccc(OCC(=O)NNC(=S)NC(=O)c2ccco2)c(Br)c1 | inconclusive: 10.4 µM [inhibitor, single point] |  |
| Oc1[nH]c2ccccc2c1C=Nc1ccccc1 |  | inactive: 97.3% |
| COc1ccc(C2(O)C(=O)Nc3ccc(C)cc32)cc1OC (configuration not stated) | inconclusive: 16.5 µM [inhibitor, single point] |  |
| Cc1cc(C)n(-c2nc3ccccc3c(=O)n2OCC(N)=O)n1 |  | inactive: -36.9% |
| O=C(Cc1ccsc1-c1ccccc1)NO |  | inactive: 15% |
| O=C(O)COc1ccc2c(c1)O/C(=C\c1cccs1)C2=O |  | inactive: 19.2% |
| O=C(O)COc1ccc(Br)cc1CP(=O)(c1ccccc1)c1ccccc1 | inconclusive: 8.28 µM [inhibitor, partial curve, poor fit] |  |
| CCN(CC)CCCNC(=S)N(Cc1cccs1)Cc1cc2cc3c(cc2[nH]c1=O)OCCO3 | inconclusive: 13.1 µM [inhibitor, single point] |  |
| O=C(c1ccc2ccccc2c1)N1CCc2ccccc21 | inconclusive: 7.38 µM [inhibitor, partial curve] |  |
| COc1ccc(CCNC(=O)c2n[nH]c(=O)c3ccccc23)cc1 | inconclusive: 0.0586 µM [inhibitor, full curve, poor fit] |  |
| COc1c(C(=O)NNC(=O)c2ccccc2Cl)csc1Br |  | inactive: 134% |
| CC(C)OP(=O)(c1ccc(N(C)C)cc1)C(O)c1ccccc1F (configuration not stated) |  | inactive: -7.11% |
| Cc1cc(C)c(S(=O)(=O)N2CCN(c3ccccn3)CC2)c(C)c1 | inconclusive: 11.7 µM [inhibitor, partial curve, poor fit] |  |
| Cc1cccc(C(=O)OCC(=O)NC(C)CCc2ccccc2)c1 (configuration not stated) |  | inactive: 9.81% |
| CCn1c(SCc2cccc(OC)c2)nc2ccccc2c1=O | inconclusive: 11.7 µM [inhibitor, single point] |  |
| Cc1ccc(C)n1-c1ccc(C(=O)NCC2CCCO2)cc1 (configuration not stated) | active: 10.4 µM |  |
| O=C(Nc1cccc(F)c1)c1cccnc1NCCc1ccccc1 | inconclusive: 4.65 µM [inhibitor, partial curve] |  |
| O=C(N/N=C/c1cc(Br)ccc1O)c1cccc(N2CCCC2=O)c1 | inconclusive: 18.5 µM [inhibitor, single point] |  |
| COc1ccc(Br)cc1S(=O)(=O)n1nc(C)cc1C | inconclusive: 6.57 µM [inhibitor, single point] |  |
| CCOC(=O)c1ccc(NC(=O)COc2cc(=O)n(CC)c3ccccc23)cc1 | inconclusive: 5.22 µM [inhibitor, partial curve, poor fit] |  |

| SMILES | Potency | activity change, negative = inhibition |
| --- | --- | --- |
| O=C(C1CC1)N1CCN(c2ccnc3cc(Cl)ccc23)CC1 | active: 7.38 µM |  |
| COc1ccc(NC(=O)CSc2ccc3ccccc3c2)cc1S(=O)(=O)N1CCCCC1 |  | inactive: -5.37% |
| CCOC(=O)c1ccc(NC(=O)CNC(=O)c2ccccc2)cc1 | inconclusive: 13.1 µM [inhibitor, single point] |  |
| Cc1cccc(C(=O)N2CCCC(N3CCN(c4ccccc4)CC3)C2)n1 (configuration not stated) | inconclusive: 0.465 µM [inhibitor, full curve, poor fit] |  |
| COc1ccccc1OCC(=O)NCCNC(=O)COc1ccccc1OC | active: 2.33 µM |  |
| C#Cc1cccc(NC(=O)c2ccc3c(c2)C(=O)N(Cc2cccnc2)C3=O)c1 |  | inactive: 26.5% |
| CS(=O)(=O)N1CCCC(C(=O)NCc2cccs2)C1 (configuration not stated) | active: 5.86 µM |  |
| COc1ccc(-c2c(NC(C)=O)n(C)c3ccccc3c2=O)cc1 | inconclusive: 5.86 µM [inhibitor, partial curve, poor fit] |  |
| CCCCCNC(=O)c1cccc(S(=O)(=O)N2CC3(C)CC2CC(C)(C)C3)c1 (configuration not stated) | inconclusive: 10.4 µM [inhibitor, single point] |  |
| O=C(Nc1cccc(C(=O)N2CCCCC2)c1)c1ccccc1Br | inconclusive: 5.22 µM [inhibitor, partial curve] |  |
| CCSc1nc2c(c(=O)n1-c1ccc(F)cc1)SCC2 | active: 2.94 µM |  |
| CCCOc1ccc(C2NC(=O)NC(c3ccccc3)=C2C(C)=O)cc1OCC (configuration not stated) | active: 4.65 µM |  |
| CCOCc1c(C(=O)N2CCN(CCOc3ccc(Cl)cc3)CC2)oc2ccccc12 |  | inactive: -21.2% |
| CC1CCCN(C(=O)N2c3ccccc3Sc3ccccc32)C1 (configuration not stated) | inconclusive: 11.7 µM [inhibitor, partial curve, poor fit] |  |
| CCN(CC)C(=O)CSc1nnc(-c2ccncc2)n1N |  | inactive: 15.4% |
| Cc1cc(/C=C2\SC(=S)NC2=O)c(C)n1-c1ccccc1 |  | inactive: -7.02% |
| O=C(O)c1ccc(N2CC3CC(C2)c2cccc(=O)n2C3)c(NC(=S)Nc2ccc(Cl)cc2Cl)c1 (configuration not stated) | inconclusive: 0.294 µM [inhibitor, full curve, poor fit] |  |
| COc1cccc(NC(=O)C2C3C=CC4(O3)C2C(=O)N(CCN2CCCCC2)C4C(=O)NC2CCCCC2C)c1 (configuration not stated) | inconclusive: 18.5 µM [inhibitor, single point] |  |
| O=C(c1cccs1)N(Cc1ccc(Cl)cc1)C1CCS(=O)(=O)C1 (configuration not stated) | inconclusive: 18.5 µM [inhibitor, single point] |  |
| Cc1nc2sccn2c(=O)c1S(=O)(=O)N1CCN(c2ccc(F)cc2)CC1 | inconclusive: 2.33 µM [inhibitor, partial curve, poor fit] |  |
| CN(C)c1ccc(C(CN)c2c[nH]c3ccccc23)cc1 (configuration not stated) | inconclusive: 18.5 µM [inhibitor, single point] |  |
| COc1ccc(-c2ccc(SCC(=O)NCc3ccc4c(c3)OCO4)nn2)cc1OC |  | inactive: 19.3% |
| CCCN1CCN(CCCNC(=O)CN2C(=O)c3cccnc3Oc3ccc(Cl)cc32)CC1 | inconclusive: 11.7 µM [inhibitor, partial curve] |  |
| O=C(CC(=O)Nc1ccc(Cl)c(Cl)c1)N/N=C/c1ccc(O)cc1 | inconclusive: 0.0047 µM [inhibitor, full curve] |  |

Molecules shown so far containing a Cl atom:

| SMILES | Potency | activity change, negative = inhibition |
| --- | --- | --- |
| COc1ccc(CCNC(=O)CSc2nnc(CNc3ccc(Cl)cc3)o2)cc1OC | inconclusive: 0.0465 µM [inhibitor, full curve, poor fit] |  |
| O=C1[C@H]2[C@@H](c3ccc(Cl)cc3)N3C(=O)N(c4cccc(Cl)c4)C(=O)[C@@]3(Cc3ccc(Cl)cc3)[C@H]2C(=O)N1C1CCCCC1 | inconclusive: 2.94 µM [inhibitor, single point] |  |
| Cc1ccc(Cl)cc1N1CCN(C(=O)COc2ccc3c(c2)CCC3)CC1 | inconclusive: 18.5 µM [inhibitor, single point] |  |
| CC(=O)c1cccc(NC(=O)COC(=O)Cc2ccc(Cl)cc2)c1 |  | inactive: 14.3% |
| CCN(CC)C1CCN(C(=O)c2cc(COc3ccc(F)cc3Cl)on2)C1 (configuration not stated) |  | inactive: -28% |
| COc1c(C(=O)NNC(=O)c2ccccc2Cl)csc1Br |  | inactive: 134% |
| O=C(C1CC1)N1CCN(c2ccnc3cc(Cl)ccc23)CC1 | active: 7.38 µM |  |
| CCOCc1c(C(=O)N2CCN(CCOc3ccc(Cl)cc3)CC2)oc2ccccc12 |  | inactive: -21.2% |
| O=C(O)c1ccc(N2CC3CC(C2)c2cccc(=O)n2C3)c(NC(=S)Nc2ccc(Cl)cc2Cl)c1 (configuration not stated) | inconclusive: 0.294 µM [inhibitor, full curve, poor fit] |  |
| O=C(c1cccs1)N(Cc1ccc(Cl)cc1)C1CCS(=O)(=O)C1 (configuration not stated) | inconclusive: 18.5 µM [inhibitor, single point] |  |
| CCCN1CCN(CCCNC(=O)CN2C(=O)c3cccnc3Oc3ccc(Cl)cc32)CC1 | inconclusive: 11.7 µM [inhibitor, partial curve] |  |
| O=C(CC(=O)Nc1ccc(Cl)c(Cl)c1)N/N=C/c1ccc(O)cc1 | inconclusive: 0.0047 µM [inhibitor, full curve] |  |

In another format: results already given.
O=C1[C@H]2[C@@H](c3ccc(Cl)cc3)N3C(=O)N(c4cccc(Cl)c4)C(=O)[C@@]3(Cc3ccc(Cl)cc3)[C@H]2C(=O)N1C1CCCCC1
  Potency: inconclusive: 2.94 µM [inhibitor, single point]
O=C(O)COc1ccc2c(c1)O/C(=C\c1cccs1)C2=O
  activity change, negative = inhibition: inactive: 19.2%
